PubChem BioAssay AID1224830, NIAID, 2016
Screen: 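Host factors that control LPS-induced TNF expression in human macrophages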 (primary screen). Cells: human THP-1 monocytic leukaemia cells, TNF dual-luciferase reporter clone, PMA-differentiated to macrophage-like cells. Reagents: siRNA pool against human genes, 50 nM. Duration: LPS for 4 h, given about 3 days after siRNA transfection. Challenge: bacterial LPS (TLR4 ligand), 10 ng/ml. Measured: 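TNF firefly reporter luminescence divided by renilla, normalised to the plate median, then turned into a robust z-score for each replicate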. Reading the numbers: TNF reporter robust z-score: higher = stronger TNF reporter response to LPS. Active means: 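Each well counts as active if its z-score is over 2.8 or under -1.5; controls are left without a call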.
Shown is one part, drawn at random, of about 18,000 deposited reagents. Of all reagents, about 2,900 (16%) are marked active. 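Calls are made per well; low scores hint the gene aids the LPS response, high scores that it dampens it.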 Repeated entries: four replicate wells of each siRNA pool. No sequences are given here.

no.	gene	PubChem SID	TNF reporter robust z-score	Outcome
1	LRRC45	SID315463071	-0.26	inactive
2	LRRC45	SID315463071	0.66	inactive
3	LRRC45	SID315463071	0.18	inactive
4	LRRC45	SID315463071	0.71	inactive
5	SEC14L3	SID315463599	-0.66	inactive
6	SEC14L3	SID315463599	-0.73	inactive
7	SEC14L3	SID315463599	-0.1	inactive
8	SEC14L3	SID315463599	-0.23	inactive
9	PAX6	SID315450432	0.11	inactive
10	PAX6	SID315450432	0.13	inactive
11	PAX6	SID315450432	0.24	inactive
12	PAX6	SID315450432	0.66	inactive
13	NSMF	SID315455614	-1.38	inactive
14	NSMF	SID315455614	-0.99	inactive
15	NSMF	SID315455614	-1.15	inactive
16	NSMF	SID315455614	-1.2	inactive

Records above whose gene name begins with P or p:
gene	PubChem SID	TNF reporter robust z-score	Outcome
PAX6	SID315450432	0.11	inactive
PAX6	SID315450432	0.13	inactive
PAX6	SID315450432	0.24	inactive
PAX6	SID315450432	0.66	inactive

More reagents follow:
no.	gene	PubChem SID	TNF reporter robust z-score	Outcome
17	DCAF12L1	SID315462064	0.98	inactive
18	DCAF12L1	SID315462064	2.03	inactive
19	DCAF12L1	SID315462064	0.25	inactive
20	DCAF12L1	SID315462064	-0.57	inactive
21	HNRNPH1	SID315449256	-0.25	inactive
22	HNRNPH1	SID315449256	-0.87	inactive
23	HNRNPH1	SID315449256	-0.82	inactive
24	HNRNPH1	SID315449256	-0.96	inactive
25	EFS	SID315453969	-1.78	active
26	EFS	SID315453969	-1.71	active
27	EFS	SID315453969	-1.83	active
28	EFS	SID315453969	-2.01	active
29	FER1L5	SID315460811	-0.05	inactive
30	FER1L5	SID315460811	0.05	inactive
31	FER1L5	SID315460811	0.12	inactive
32	FER1L5	SID315460811	1.59	inactive
33	PIK3CG	SID315450592	-1.73	active
34	PIK3CG	SID315450592	0.18	inactive
35	PIK3CG	SID315450592	-0.11	inactive
36	PIK3CG	SID315450592	-0.31	inactive
37	HIP1	SID315449191	0.66	inactive
38	HIP1	SID315449191	-0.55	inactive
39	HIP1	SID315449191	-0.44	inactive
40	TNFRSF11B	SID315450359	1.64	inactive
41	TNFRSF11B	SID315450359	2.86	active
42	TNFRSF11B	SID315450359	1.73	inactive
43	TNFRSF11B	SID315450359	2.93	active
44	DTNBP1	SID315460166	0.06	inactive
45	DTNBP1	SID315460166	-0.65	inactive
46	DTNBP1	SID315460166	0	inactive
47	DTNBP1	SID315460166	0.6	inactive
